Measurements published in PubChem BioAssay AID445 (National Center for Advancing Translational Sciences (NCATS), 2006).
The list shows a part of the results. These are further read-outs of the screen, such as a control signal, another cell line or another target. No call is given for them. The list favours compounds with an active or inconclusive main result. Potencies come from curve fits of mixed quality, noted in brackets.

Test: IkB Signaling
Details: ABC-DLBCL IkBa-CBG/CBR dual luciferase ratio (green luciferase fused to IkBa over red control in OCI-Ly3 lymphoma cells), 4 h; measured here: control luc red channel unless noted
In short: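 Luminescence ratio of IκBα-fused green versus native red beetle luciferase in OCI-Ly3 cells, 4 h post-doxycycline with compound; red signal alone, scaled from basal (0%) to zero light (-100%), flagged nonspecific or cytotoxic effects.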

SMILES | AC50
CCOc1ccc(CNC(=O)C2CCN(C3=NS(=O)(=O)C(c4ccc(C)cc4)=C3CC)CC2)cc1 | 25.1 µM [falling, single point]
CCN(CC)CC(=O)c1c[nH]c2ccccc12 | 39.8 µM [falling, single point]
COc1ccccc1N1CSC2=C(C#N)C(c3ccc(SC)cc3)CC(=O)N2C1 (stereo not drawn) | 5.01 µM [falling, full curve]
CC1=C(C(=O)OC2CCCCCCC2)C(c2ccc(O)cc2)NC(=O)N1 (stereo not drawn) | 15.8 µM [falling, partial curve]
OCc1cc([C@@H](O)CNCCCCCCOCCCCc2ccccc2)ccc1O | 39.8 µM [falling, partial curve]
CCOC(=O)c1ccc(N2C(=O)c3n[nH]c(-c4cccs4)c3C2c2ccc(O)c(OC)c2)cc1 (stereo not drawn) | 12.6 µM [falling, partial curve]
CCN(C(=O)c1cc2c(s1)-c1c(C)cccc1OC2)c1cc(C)ccc1C | 0.794 µM [falling, full curve]
CCOc1ccc2oc(=O)cc(CN3CCN(c4ccc(OC)cc4)CC3)c2c1 | 39.8 µM [falling, single point]
CCOc1cc(S(=O)(=O)n2cc(-c3ccc(F)cc3)c(N)n2)cc(OCC)c1OCC | 6.31 µM [falling, partial curve]
COc1ccc(OC)c(NC(=O)Cn2c(=O)oc3cc(S(=O)(=O)NCc4ccccc4)ccc32)c1 | 0.794 µM [rising, full curve]
CCn1c(CC(=O)Nc2cccc(OC)c2)nnc1SCC(=O)N1CCN(c2ccccc2)CC1 | 12.6 µM [falling, partial curve]
O=C(NC1CC(=O)N(c2ccccc2)C1)c1ccc(S(=O)(=O)N2CCOCC2)cc1 (stereo not drawn) | 7.94 µM [falling, single point]
c1ccc(-c2cn(-c3ccccc3)c3ncnc(N4CCN(c5ccccc5)CC4)c23)cc1 | 20 µM [falling, single point]
COc1ccc(OC)c(NC(=O)CSc2n[nH]c(-c3ccccc3Cl)n2)c1 | 31.6 µM [falling, single point]
COc1ccccc1N1CCN(c2ccc3cc(S(=O)(=O)N4CCCCC4)ccc3n2)CC1 | 39.8 µM [falling, single point]
O=C(NC1CCCC1)C(c1ccsc1)N(Cc1ccco1)C(=O)Cc1cccs1 (stereo not drawn) | 6.31 µM [rising, full curve, poor fit] [measured here: IkB-luc green channel]
CC1CCN(C(=O)CSc2c3c(nc4cc(Cl)ccc24)CCCC3)CC1 | 25.1 µM [falling, partial curve]
c1ccc(-c2oc3ncnc(NCCCn4ccnc4)c3c2-c2ccccc2)cc1 | 10 µM [falling, partial curve]
COc1ccc(Br)c2c1-c1nc(NC(=O)c3cccc(C)c3)sc1C2 | 3.98 µM [falling, partial curve]
CN(C)S(=O)(=O)c1ccc2c(c1)c(=O)c(C(=O)N1CCN(c3cccc(Cl)c3)CC1)cn2C | 0.158 µM [falling, full curve]
S=c1[nH]nc(COc2ccc(Cl)cc2)o1 | 20 µM [falling, single point]

SMILES | AC50
CCOc1ccccc1NC(=O)CSC1=Nc2ccccc2C2=NC(CC(=O)NC3CCCCC3)C(=O)N12 (stereo not drawn) | 3.98 µM [falling, partial curve]
CCOc1ccc(CN2C(=O)c3ccccc3Sc3ccc(C(=O)N4CCN(C)CC4)cc32)cc1 | 3.98 µM [falling, partial curve]
CCC(CC)C(=O)Nc1c(C(=O)N2CCN(c3ccccc3F)CC2)oc2ccccc12 | 10 µM [falling, partial curve]
Cc1oc(-c2ccccc2F)nc1CS(=O)(=O)CC(=O)N1CCN(c2cccc(C(F)(F)F)c2)CC1 | 3.98 µM [falling, full curve]
N#Cc1ccc(C(=O)Nc2ccc(Cl)c(-c3nc4cc(Cl)ccc4o3)c2)c(F)c1 | 7.94 µM [falling, full curve]
COc1cccc(C(=O)Nc2ccc(C)cc2)c1 | 25.1 µM [falling, partial curve]
Cc1ccc(NC(=O)c2cccc(NC(=O)N3CCSc4ncccc43)c2)cc1Cl | 2.51 µM [falling, full curve]
COc1ccc(N2CCN(C(=O)Cn3ncc4c3-c3cc(C)ccc3OC4)CC2)cc1 | 5.01 µM [falling, partial curve]
COc1ccc(F)cc1S(=O)(=O)NCCc1csc(-c2ccc(Cl)cc2)n1 | 10 µM [falling, partial curve, poor fit]
O=C(NCc1ccco1)Nc1ccc2nsnc2c1 | 12.6 µM [falling, partial curve]
Cc1c(C(=O)NCc2ccc3c(c2)OCO3)oc2ccccc12 | 12.6 µM [falling, partial curve]
CCCC(=O)NCCc1nc2ccccc2n1Cc1c(F)cccc1Cl | 25.1 µM [falling, partial curve, poor fit]
O=C(COC(=O)c1n[nH]c2ccccc12)Nc1ccc(S(=O)(=O)N2CCCC2)cc1 | 10 µM [falling, partial curve]
COc1ccc(-n2c(=O)c3ccccc3n(Cc3ccccc3C)c2=O)c(OC)c1 | 10 µM [falling, partial curve]
CC(=O)Nc1nonc1-c1nnc(SCC(=O)Nc2ccc(C)c(Cl)c2)n1-c1ccccc1 | 15.8 µM [falling, partial curve]
CCOc1ccc(C(=O)c2cnc3ccc(Cl)cc3c2S(=O)(=O)c2ccc(C)cc2)cc1 | 0.251 µM [falling, full curve]
Cc1ccc(-n2nc(CO)c(C(=O)NCCCc3ccccc3)n2)cc1 | 15.8 µM [falling, partial curve]
O=C(Nc1ccccc1)N1CCC(c2ccccc2)C1 (stereo not drawn) | 2.51 µM [falling, partial curve]
O=C(CSc1nnc2ccc3ccccc3n12)c1ccc(F)cc1 | 15.8 µM [falling, partial curve]
Cc1ccc(C(=O)Nc2onc3c2CCCC3)cc1 | 0.316 µM [rising, full curve, poor fit]
Cc1ccccc1C(=O)Nc1ccc2c(c1)CCCN2C(=O)c1cccs1 | 15.8 µM [falling, single point]

SMILES | AC50
COc1ccc(C(=O)N2CCC(c3nc(-c4ccc(S(=O)(=O)N5CCCC5)cc4)no3)CC2)cc1 | 15.8 µM [falling, partial curve]
CCCn1c(SCC(=O)N2CCN(c3ccccc3)CC2)nc2ccccc2c1=O | 10 µM [falling, partial curve]
COc1ccc(C(=O)Nc2ccc(-c3nc4ccccc4s3)cc2C)cc1Cl | 15.8 µM [rising, partial curve]
COC(=O)c1cc(-c2ccc(OC)c(OC)c2)c2c(=O)[nH]c(=O)n(C)c2n1 | 3.98 µM [rising, partial curve]
O=S(=O)(Nc1nc2ccccc2s1)c1ccc(Br)s1 | 12.6 µM [falling, partial curve]
O=C(c1cc(-c2ccc(Cl)c(Cl)c2)on1)N1CCCCC1 | 0.0158 µM [falling, full curve]
Cc1ccc(-n2ncc3c(Nc4ccccc4C)ncnc32)cc1 | 39.8 µM [falling, single point]
COc1cccc(Cn2c(NCc3ccc(C)cc3)nc3c2c(=O)n(C)c(=O)n3C)c1 | 25.1 µM [falling, partial curve, poor fit]
O=C(CCCn1c(=O)c2sccc2n(Cc2cccc(Cl)c2)c1=O)NCc1ccc2c(c1)OCO2 | 31.6 µM [falling, single point]
CNS(=O)(=O)c1cn(CC(=O)N2CCN(c3cc(C)ccc3C)CC2)cc1S(=O)(=O)NC | 25.1 µM [falling, single point]
Cc1cc(C)cc(NC(=O)CSCc2cc(=O)c3ccc(C)c(C)c3[nH]2)c1 | 15.8 µM [falling, partial curve, poor fit]
O=C(Nc1ccc2oc(-c3ccccc3F)nc2c1)c1ccc2c(c1)OCCO2 | 3.16 µM [falling, full curve]
COc1ccc(NC(=O)CSc2nc(-c3ccco3)nc3cc(=O)[nH]n23)cc1 | 31.6 µM [falling, single point]
Fc1ccc(Cn2c(-c3cccc(Br)c3)nc3ccccc32)cc1 | 39.8 µM [falling, single point]
Cc1nn2c(C)c(C(=O)NCC(C)c3ccccc3)cnc2c1-c1ccccc1 (stereo not drawn) | 31.6 µM [falling, single point]
O=C(NCCc1nc2ccccc2n1CCCOc1ccc(Cl)cc1)C1CCCCC1 | 15.8 µM [falling, partial curve]
Cc1cccc(NC(=O)c2sc3nc(-c4ccccc4)cn3c2C)n1 | 3.16 µM [falling, full curve]
Cc1cccc(NC(=O)CSc2nccn2-c2cccc(Cl)c2)c1C | 15.8 µM [falling, partial curve]
COc1ccc(C(=O)Nc2noc3ccccc23)cc1 | 10 µM [falling, partial curve]
Cc1ccc(NC(=O)c2sc(-n3nc(C)c(Cc4ccc5c(c4)OCO5)c3C)nc2C)cc1C | 15.8 µM [falling, partial curve]
CCOc1cc(C2c3c(-c4ccccc4O)n[nH]c3C(=O)N2Cc2cccnc2)ccc1O (stereo not drawn) | 31.6 µM [falling, single point]
